Data as given in PubChem BioAssay AID1259308 (NCATS, 2017)
Aim: 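Candidate targets for better recombinant protein yield in mammalian cells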 (primary screen). System: human HEK293 embryonic kidney cells stably expressing firefly luciferase (HEK-CMV-Luc2-Hygro). Reagent: single siRNA against human genes, 0.8 pmol siRNA per well. Duration: 72 h. Measurement: 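Luciferase light (ONE-Glo) measured on one replicate plate set and viability (CellTiter-Glo) on the other, scaled to a negative control siRNA, with robust z-scores and luciferase per cell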. Direction: total luciferase, z-score and total luciferase, % of control: higher = more reporter protein produced; luciferase per cell, z-score: higher = more reporter output per viable cell; viable cells, % of control: higher = more viable cells. Rule for the call: 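Active when the median/MAD z-score for overall luciferase is greater than 3; a gene was taken forward for validation with new siRNAs if at least two of its three siRNAs passed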. Calls: active = raised luciferase; inactive = no rise.
The whole screen tested about 59,000 reagents; below is an unselected part. About 1,510 of them (2.6%) count as active. 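Calls use total luciferase alone and ignore viability, so some active siRNAs may act by altering cell number.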 Entries without a mark were called inactive.

Gene	PubChem SID	total luciferase, z-score	total luciferase, % of control	luciferase per cell, z-score	viable cells, % of control
ZNF843	SID160732952	0.235	86.6	-0.317	105
ZNF843	SID160763083	2.98	141	1.47	107
ZNF843	SID160763084	-1.53	51.5	-0.941	73.7
PPP1R13B	SID160736125	-1.21	57.8	-1.65	99.8
PPP1R13B	SID160736126	0.00169	81.9	-0.359	101
PPP1R13B	SID160736128	-0.215	77.6	-0.681	104
CACNG5	SID160730960	0.196	85.8	0.582	82.2
CACNG5	SID160738350	-0.68	68.4	-0.00988	76.6
CACNG5	SID160738353	0.0163	82.2	-0.787	113

The list goes on, starting with the last 3 of the part before.
Gene	PubChem SID	total luciferase, z-score	total luciferase, % of control	luciferase per cell, z-score	viable cells, % of control
CACNG5	SID160730960	0.196	85.8	0.582	82.2
CACNG5	SID160738350	-0.68	68.4	-0.00988	76.6
CACNG5	SID160738353	0.0163	82.2	-0.787	113
OPRL1	SID160778399	1.4	110	1.59	80.6
OPRL1	SID160778400	1.34	109	0.793	98.4
OPRL1	SID160778402	-0.0628	80.6	-0.637	107
PSMG1	SID160720450	0.144	84.7	0.335	86.7
PSMG1	SID160720451	0.972	101	1.05	85.7
PSMG1	SID160720452	-0.179	78.3	-0.642	104
PPOX	SID160714751	0.902	99.8	0.0569	110
PPOX	SID160714752	-0.359	74.7	-0.854	105
PPOX	SID160714753	-0.0681	80.5	-0.477	102
CACNA1B	SID160734745	-0.733	67.3	-0.72	90.9
CACNA1B	SID160734847	0.252	86.9	1	74.6
CACNA1B	SID160734947	-0.25	76.9	-0.482	97.6
DRAP1	SID160728804	-0.273	76.5	-0.609	100
DRAP1	SID160728805	-1.45	53.1	-2.13	104
DRAP1	SID160730455	-0.387	74.2	-0.934	106
